These are yes or no findings as the source states them, for the method shown. For some of these results: In cells and extracts the contact can be indirect. Some binding calls cover weakened binding; strength is not graded here. One block for each molecule: values may come before it.
Tests used:
[1] = target: T1, High mobility group box B protein HMGB2 (Y2H bait) (UniProt P26583); assay: two-hybrid; Matchmaker Gold Yeast Two-Hybrid System; HMGB1 or HMGB2 fused to the GAL4 DNA-binding domain as bait, cDNA library from ovarian tumor tissue (primary transitional cell carcinoma) fused to the GAL4 activation domain as prey; mating of Y187 and Y2HGold; positives by at least three different reporter genes, clones sequenced
T1 sequence: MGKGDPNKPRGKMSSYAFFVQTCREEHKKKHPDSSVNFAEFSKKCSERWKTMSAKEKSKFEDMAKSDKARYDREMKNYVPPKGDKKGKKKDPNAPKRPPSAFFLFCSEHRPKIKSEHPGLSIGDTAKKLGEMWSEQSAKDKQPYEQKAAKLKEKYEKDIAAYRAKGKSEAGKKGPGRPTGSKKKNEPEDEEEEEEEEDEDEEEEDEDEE

Sequences of proteins named here, by UniProt entry; tags and fusion partners are left off. A change or cut given only in a name is not applied to a line headed by its entry. Residues count along the entry.
UniProt P09429: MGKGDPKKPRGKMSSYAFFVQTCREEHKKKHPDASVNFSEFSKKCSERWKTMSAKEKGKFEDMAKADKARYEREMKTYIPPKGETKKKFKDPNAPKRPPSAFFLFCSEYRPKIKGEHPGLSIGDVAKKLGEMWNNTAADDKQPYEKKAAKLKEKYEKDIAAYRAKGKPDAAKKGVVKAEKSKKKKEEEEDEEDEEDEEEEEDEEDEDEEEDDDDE
UniProt Q8N668: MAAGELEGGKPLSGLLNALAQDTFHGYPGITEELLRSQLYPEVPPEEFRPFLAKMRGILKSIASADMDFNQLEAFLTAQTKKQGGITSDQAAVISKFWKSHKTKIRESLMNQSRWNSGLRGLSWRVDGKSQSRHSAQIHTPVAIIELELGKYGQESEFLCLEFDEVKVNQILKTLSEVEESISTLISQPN
UniProt Q8WVS4, residues 170-336: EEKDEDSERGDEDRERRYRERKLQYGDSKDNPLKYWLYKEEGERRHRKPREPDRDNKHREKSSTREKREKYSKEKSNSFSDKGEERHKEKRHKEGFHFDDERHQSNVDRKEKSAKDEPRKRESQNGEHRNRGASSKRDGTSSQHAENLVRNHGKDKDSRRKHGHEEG
UniProt Q96KR1, residues 294-722: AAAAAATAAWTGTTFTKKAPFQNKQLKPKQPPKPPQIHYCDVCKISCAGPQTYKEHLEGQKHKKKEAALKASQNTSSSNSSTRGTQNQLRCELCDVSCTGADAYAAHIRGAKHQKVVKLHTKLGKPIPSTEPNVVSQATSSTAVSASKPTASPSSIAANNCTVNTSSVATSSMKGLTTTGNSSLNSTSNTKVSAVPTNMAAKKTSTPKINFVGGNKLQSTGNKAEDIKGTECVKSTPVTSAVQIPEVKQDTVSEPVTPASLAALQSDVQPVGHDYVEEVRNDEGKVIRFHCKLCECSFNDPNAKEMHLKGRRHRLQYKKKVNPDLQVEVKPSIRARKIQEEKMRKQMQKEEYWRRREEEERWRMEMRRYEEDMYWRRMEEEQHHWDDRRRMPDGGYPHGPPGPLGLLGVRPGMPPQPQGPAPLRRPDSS
UniProt Q9P287, residues 8-257: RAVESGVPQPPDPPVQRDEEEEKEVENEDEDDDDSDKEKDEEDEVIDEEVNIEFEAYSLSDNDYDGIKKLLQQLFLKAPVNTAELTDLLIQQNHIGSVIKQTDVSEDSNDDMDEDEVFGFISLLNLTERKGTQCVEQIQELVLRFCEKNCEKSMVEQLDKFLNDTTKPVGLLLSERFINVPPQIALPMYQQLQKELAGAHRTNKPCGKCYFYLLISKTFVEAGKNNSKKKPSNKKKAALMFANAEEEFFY
UniProt Q15365, residues 26-202: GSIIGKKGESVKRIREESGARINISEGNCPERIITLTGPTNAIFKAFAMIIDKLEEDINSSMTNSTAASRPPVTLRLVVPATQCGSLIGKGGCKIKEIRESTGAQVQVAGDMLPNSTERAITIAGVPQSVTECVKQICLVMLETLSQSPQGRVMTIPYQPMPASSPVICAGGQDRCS
UniProt Q13464, residues 141-197: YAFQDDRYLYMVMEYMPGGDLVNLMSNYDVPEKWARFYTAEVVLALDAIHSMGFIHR

[2] = target: T1, High mobility group box B protein HMGB2 (Y2H bait); assay: two-hybrid; Matchmaker Gold Yeast Two-Hybrid System; HMGB1 or HMGB2 fused to the GAL4 DNA-binding domain as bait, cDNA library from SKOV-3 cells fused to the GAL4 activation domain as prey; mating of Y187 and Y2HGold; positives by at least three different reporter genes, clones sequenced
[3] = target: High mobility group box B protein HMGB1 (Y2H bait) (UniProt P09429); assay: as above
[4] = target: High mobility group box B protein HMGB1 (Y2H bait) (UniProt P09429); assay: two-hybrid; Matchmaker Gold Yeast Two-Hybrid System; HMGB1 or HMGB2 fused to the GAL4 DNA-binding domain as bait, cDNA library from ovarian tumor tissue (primary transitional cell carcinoma) fused to the GAL4 activation domain as prey; mating of Y187 and Y2HGold; positives by at least three different reporter genes, clones sequenced
[5] = target: T2, HMGB2 (endogenous) (human (endogenous in SKOV-3 and PEO1)) (UniProt P26583); assay: co-IP; SKOV-3 and PEO1 cells cross-linked with 1% formaldehyde for 10 min; 16 mg total protein extract immunoprecipitated with HMGB2 rabbit polyclonal antibody on dynabeads-protein A (IgG as control); Western blot for HMGB2, MIEN1 and NOP53; lysis buffer 50 mM Tris-HCl pH 8, 150 mM NaCl, 0.1% NP-40, 1 mM EDTA
T2 sequence: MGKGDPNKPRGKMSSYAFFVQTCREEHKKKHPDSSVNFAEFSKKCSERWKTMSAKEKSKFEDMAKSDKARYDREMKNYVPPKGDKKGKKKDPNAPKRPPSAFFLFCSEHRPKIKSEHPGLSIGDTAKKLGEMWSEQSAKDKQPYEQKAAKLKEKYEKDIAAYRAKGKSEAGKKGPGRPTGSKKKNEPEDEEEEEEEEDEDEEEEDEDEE

Molecule: COMM domain-containing protein 1 (clone 2-189, SKOV-3 library) (from UniProt Q8N668 2-189) (domain or fragment)
binding [2]: binds

Molecule: WD repeat-containing protein 60 (from UniProt Q8WVS4 170-336) (domain or fragment)
binding [3]: binds

Molecule: Zinc finger RNA-binding protein (from UniProt Q96KR1 294-722) (domain or fragment)
binding [1]: binds

Molecule: BRCA2 and CDKN1A-interacting protein (from UniProt Q9P287 8-257) (domain or fragment)
binding [2]: binds

Molecule: 60S ribosomal protein L29 (from UniProt P47914 36-143) (domain or fragment)
binding [4]: binds

B1: A-kinase-interacting protein 1 (domain or fragment, UniProt Q9NQ31 29-210)
chain: LERAKRRAVDWHALERPKGCMGVLAREAPHLEKQPAAGPQRVLPGEREERPPTLSASFRTMAEFMDYTSSQCGKYYSSVPEEGGATHVYRYHRGESKLHMCLDIGNGQRKDRKKTSLGPGGSYQISEHAPEASQPAENISKDLYIEVYPGTYSVTVGSNDLTKKTHVVAVDSGQSVDLVFPV
binding [3]: binds

B2: Zinc finger protein 668 (domain or fragment, UniProt Q96K58 16-239)
chain: KRSGRRYKCLSCTKTFPNAPRAARHAATHGPADCSEEVAEVKPKPETEAKAEEASGEKVSGSAAKPRPYACPLCPKAYKTAPELRSHGRSHTGEKPFPCPECGRRFMQPVCLRVHLASHAGELPFRCAHCPKAYGALSKLKIHQRGHTGERPYACADCGKSFADPSVFRKHRRTHAGLRPYSCERCGKAYAELKDLRNHERSHTGERPFLCSECGKSFSRSSSL
binding [2]: binds

B6: TBC1 domain family member 25 (domain or fragment, UniProt Q3MII6 309-366)
chain: PHLRALHDLLTTYAVTHPQVSYCQGMSDLASPILAVMDHEGHAFVCFCGIMKRLAANF
binding [1]: binds

Molecule: EEEEEEGTYHCTECEDSFDNLGELHGHFMLHARGEV (domain or fragment, UniProt Q96B54 153-188) [Zinc finger protein 428]
binding [1]: binds

B7: Remodeling and spacing factor 1 (domain or fragment, UniProt Q96T23 616-799)
chain: ESEKPGSPEAAETSPPSNIIDHCEKLASEKEVVECQSTSTVGGQSVKKVDLETLKEDSEFTKVEMDNLDNAQTSGIEEPSETKGSMQKSKFKYKLVPEEETTASENTEITSERQKEGIKLTIRISSRKKKPDSPPKVLEPENKQEKTEKEEEKTNVGRTLRRSPRISRPTAKVAEIRDQKADKK
binding [4]: binds

B8: Migration and invasion enhancer 1 (clone 1-116) (protein, UniProt Q9BRT3 1-115)
chain: MSGEPGQTSVAPPPEEVEPGSGVRIVVEYCEPCGFEATYLELASAVKEQYPGIEIESRLGGTGAFEIEINGQLVFSKLENGGFPYEKDLIEAIRRASNGETLEKITNSRPPCVIL
binding [2]: binds
binding [1]: binds

B11: Splicing factor U2AF 35 kDa subunit (domain or fragment, UniProt Q01081 35-202)
chain: RLHNKPTFSQTIALLNIYRNPQNSSQSADGLRCAVSDVEMQEHYDEFFEEVFTEMEEKYGEVEEMNVCDNLGDHLVGNVYVKFRREEDAEKAVIDLNNRWFNGQPIHAELSPVTDFREACCRQYEMGECTRGGFCNFMHLKPISRELRRELYGRRRKKHRSRSRSRER
binding [2]: binds

The next lines start with the values.

binding [1]: binds
Molecule: COMM domain-containing protein 1 (clone 4-189, tumor tissue library) (from UniProt Q8N668 4-189) (domain or fragment)

binding [1]: binds
Molecule: Poly (rC)-binding protein 1 (from UniProt Q15365 26-202) (domain or fragment)

binding [2]: binds
Molecule: Rho-associated protein kinase 1 (from UniProt Q13464 141-197) (domain or fragment)

binding [3]: binds
B3: E3 ubiquitin-protein ligase UHRF2 (domain or fragment, UniProt Q96PU4 157-277)
chain: GQSRGKTPLKNGSSCKRTNGNIKHKSKENTNKLDSVPSTSNSDCVAADEDVIYHIQYDEYPESGTLEMNVKDLRPRARTILKWNELNVGDVVMVNYNVESPGQRGFWFDAEITTLKTISRT

binding [4]: binds
B4: TGM2 (domain or fragment, UniProt P21980 377-480)
chain: RAIKEGDLSTKYDAPFVFAEVNADVVDWIQQDDGSVHKSINRSLIVGLKISTKSVGRDEREDITHTYKYPEGSSEEREAFTRANHLNKLAEKEETGMAMRIRVG

binding [3]: binds
B5: ATF7IP (domain or fragment, UniProt Q6VMQ6 8-250)
chain: QKKVFKARKTMRVSDRQQLEAVYKVKEELLKTDVKLLNGNHENGDLDPTSPLENMDYIKDKEEVNGIEEICFDPEGSKAEWKETPCILSVNVKNKQDDDLNCEPLSPHNITPEPVSKLPAEPVSGDPAPGDLDAGDPASGVLASGDSTSGDPTSSEPSSSDAASGDATSGDAPSGDVSPGDATSGDATADDLSSGDPTSSDPIPGEPVPVEPISGDCAADDIASSEITSVDLASGAPASTDPA

binding [5]: binds
B9: Migration and invasion enhancer 1 (endogenous) (protein, UniProt Q9BRT3 1-115)
chain: MSGEPGQTSVAPPPEEVEPGSGVRIVVEYCEPCGFEATYLELASAVKEQYPGIEIESRLGGTGAFEIEINGQLVFSKLENGGFPYEKDLIEAIRRASNGETLEKITNSRPPCVIL

binding [4]: binds
B10: Dystroglycan (domain or fragment, UniProt Q14118 311-516)
chain: RRQIHATPTPVTAIGPPTTAIQEPPSRIVPTPTSPAIAPPTETMAPPVRDPVPGKPTVTIRTRGAIIQTPTLGPIQPTRVSEAGTTVPGQIRPTMTIPGYVEPTAVATPPTTTTKKPRVSTPKPATPSTDSTTTTTRRPTKKPRTPRPVPRVTTKVSITRLETASPPTRIRTTTSGVPRGGEPNQRPELKNHIDRVDAWVGTYFEV

binding [3]: binds
B12: Keratin, type II cytoskeletal 7 (domain or fragment, UniProt P08729 102-289)
chain: FASFIDKVRFLEQQNKLLETKWTLLQEQKSAKSSRLPDIFEAQIAGLRGQLEALQVDGGRLEAELRSMQDVVEDFKNKYEDEINHRTAAENEFVVLKKDVDAAYMSKVELEAKVDALNDEINFLRTLNETELTELQSQISDTSVVLSMDNSRSLDLDGIIAEVKAQYEEMAKCSRAEAEAWYQTKFET

— paper PMC7564582
